{"source": "PubChem BioAssay AID1159578 | Peter MacCallum Cancer Centre | 2015", "purpose": "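Genome-wide hunt for genes controlling movement of lymphatic endothelial cells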 (primary screen)", "cells": "human lymphatic endothelial cells", "reagents": "siRNA pool against human genes, 40 nM", "duration": "48 h after transfection", "read-out": "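Cells stained with dye and imaged after a scratch; covered wound area and nuclei counted, duplicates averaged, migration set against mock wells and turned into a robust z-score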", "direction": "migration robust z-score: higher = faster migration into the scratch; nuclei per well: higher = more cells in the well", "call rule": "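Migration changed when robust z exceeds 2 or falls below -2 and mean nuclei number is at least 3300; otherwise not called changed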", "meaning of the calls": "active = migration changed; inactive = no migration change, or too few cells", "note": "This is an unselected part of about 18,000 reagents. Over the whole deposit, about 1,030 (5.7%) were called active. 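Inactive calls also include pools with fewer than 3300 nuclei, whose migration was not assessed.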 The raw values are shown without normalisation. Further read-outs or replicates are left out here. No sequences are given here."}
{"gene": "TRIP4 (GeneID 9325)", "PubChem SID": "SID255354191", "migration robust z-score": -0.18, "migration class with cell-count check": "migration z between -2 and 2; enough cells", "nuclei per well, duplicate mean": 5914, "activity call": "inactive"}
{"gene": "ADGRE2 (GeneID 30817)", "PubChem SID": "SID255357290", "migration robust z-score": 0.36, "migration class with cell-count check": "migration z between -2 and 2; enough cells", "nuclei per well, duplicate mean": 5920, "activity call": "inactive"}
{"gene": "KCNK2 (GeneID 3776)", "PubChem SID": "SID255350622", "migration robust z-score": 0.6, "migration class with cell-count check": "migration z between -2 and 2; enough cells", "nuclei per well, duplicate mean": 6003, "activity call": "inactive"}
{"gene": "OR13J1 (GeneID 392309)", "PubChem SID": "SID255365698", "migration robust z-score": -0.64, "migration class with cell-count check": "migration z between -2 and 2; enough cells", "nuclei per well, duplicate mean": 7679, "activity call": "inactive"}
{"gene": "RPS19 (GeneID 6223)", "PubChem SID": "SID255352230", "migration robust z-score": -2.17, "migration class with cell-count check": "migration z below -2; enough cells", "nuclei per well, duplicate mean": 3682, "activity call": "active"}
{"gene": "PDGFRB (GeneID 5159)", "PubChem SID": "SID255351485", "migration robust z-score": -2.44, "migration class with cell-count check": "migration z below -2; enough cells", "nuclei per well, duplicate mean": 4441, "activity call": "active"}
{"gene": "AK3 (GeneID 50808)", "PubChem SID": "SID255357361", "migration robust z-score": 0.88, "migration class with cell-count check": "migration z between -2 and 2; enough cells", "nuclei per well, duplicate mean": 5359, "activity call": "inactive"}
{"gene": "CUL5 (GeneID 8065)", "PubChem SID": "SID255353379", "migration robust z-score": 0.75, "migration class with cell-count check": "migration z between -2 and 2; enough cells", "nuclei per well, duplicate mean": 5601, "activity call": "inactive"}
{"gene": "PSMA2 (GeneID 5683)", "PubChem SID": "SID255351877", "migration robust z-score": -2.08, "migration class with cell-count check": "migration z below -2; enough cells", "nuclei per well, duplicate mean": 5400, "activity call": "active"}
{"gene": "RECQL4 (GeneID 9401)", "PubChem SID": "SID255354248", "migration robust z-score": -0.31, "migration class with cell-count check": "migration z between -2 and 2; enough cells", "nuclei per well, duplicate mean": 5434, "activity call": "inactive"}
{"gene": "TAF11 (GeneID 6882)", "PubChem SID": "SID255352738", "migration robust z-score": -0.32, "migration class with cell-count check": "migration z between -2 and 2; enough cells", "nuclei per well, duplicate mean": 5008, "activity call": "inactive"}
{"gene": "XYLT2 (GeneID 64132)", "PubChem SID": "SID255359849", "migration robust z-score": -0.88, "migration class with cell-count check": "migration z between -2 and 2; enough cells", "nuclei per well, duplicate mean": 6060, "activity call": "inactive"}
{"gene": "CHST12 (GeneID 55501)", "PubChem SID": "SID255358654", "migration robust z-score": -1.12, "migration class with cell-count check": "migration z between -2 and 2; enough cells", "nuclei per well, duplicate mean": 3845, "activity call": "inactive"}
{"gene": "FUCA2 (GeneID 2519)", "PubChem SID": "SID255349762", "migration robust z-score": 0.54, "migration class with cell-count check": "migration z between -2 and 2; enough cells", "nuclei per well, duplicate mean": 4176, "activity call": "inactive"}
{"gene": "CERCAM (GeneID 51148)", "PubChem SID": "SID255357517", "migration robust z-score": 0.8, "migration class with cell-count check": "migration z between -2 and 2; enough cells", "nuclei per well, duplicate mean": 6762, "activity call": "inactive"}
{"gene": "WDCP (GeneID 80304)", "PubChem SID": "SID255360741", "migration robust z-score": 0.75, "migration class with cell-count check": "migration z between -2 and 2; enough cells", "nuclei per well, duplicate mean": 5740, "activity call": "inactive"}
{"gene": "SLC8A1 (GeneID 6546)", "PubChem SID": "SID255352475", "migration robust z-score": 0.34, "migration class with cell-count check": "migration z between -2 and 2; enough cells", "nuclei per well, duplicate mean": 6138, "activity call": "inactive"}
{"gene": "SLC25A51 (GeneID 92014)", "PubChem SID": "SID255361974", "migration robust z-score": 0.61, "migration class with cell-count check": "migration z between -2 and 2; enough cells", "nuclei per well, duplicate mean": 5322, "activity call": "inactive"}
{"gene": "GNL3 (GeneID 26354)", "PubChem SID": "SID255356777", "migration robust z-score": -0.79, "migration class with cell-count check": "migration z between -2 and 2; enough cells", "nuclei per well, duplicate mean": 5091, "activity call": "inactive"}
{"gene": "THOP1 (GeneID 7064)", "PubChem SID": "SID255352859", "migration robust z-score": 0.39, "migration class with cell-count check": "migration z between -2 and 2; enough cells", "nuclei per well, duplicate mean": 5820, "activity call": "inactive"}
{"gene": "STAG3L2 (GeneID 442582)", "PubChem SID": "SID255365976", "migration robust z-score": 0.74, "migration class with cell-count check": "migration z between -2 and 2; enough cells", "nuclei per well, duplicate mean": 6156, "activity call": "inactive"}
{"gene": "ZNF826P (GeneID 664701)", "PubChem SID": "SID255366163", "migration robust z-score": 1.92, "migration class with cell-count check": "migration z between -2 and 2; enough cells", "nuclei per well, duplicate mean": 6550, "activity call": "inactive"}
{"gene": "CSMD3 (GeneID 114788)", "PubChem SID": "SID255362240", "migration robust z-score": -1.08, "migration class with cell-count check": "migration z between -2 and 2; enough cells", "nuclei per well, duplicate mean": 4934, "activity call": "inactive"}
{"gene": "ADAMTS6 (GeneID 11174)", "PubChem SID": "SID255355656", "migration robust z-score": -0.47, "migration class with cell-count check": "migration z between -2 and 2; enough cells", "nuclei per well, duplicate mean": 5500, "activity call": "inactive"}
{"gene": "PPEF2 (GeneID 5470)", "PubChem SID": "SID255351717", "migration robust z-score": -1.9, "migration class with cell-count check": "migration z between -2 and 2; enough cells", "nuclei per well, duplicate mean": 6127, "activity call": "inactive"}
{"gene": "PMM1 (GeneID 5372)", "PubChem SID": "SID255351653", "migration robust z-score": -0.7, "migration class with cell-count check": "migration z between -2 and 2; enough cells", "nuclei per well, duplicate mean": 4728, "activity call": "inactive"}
{"gene": "TMSB10 (GeneID 9168)", "PubChem SID": "SID255354087", "migration robust z-score": 0.62, "migration class with cell-count check": "migration z between -2 and 2; enough cells", "nuclei per well, duplicate mean": 6454, "activity call": "inactive"}
